Measurements reported in PubChem BioAssay AID720505 (Drosophila RNAi Screening Center, 2013)

Purpose: 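Fly regulators or components of the CRAC channel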 (primary screen)
System: Drosophila S2R+ cells
Reagent: long dsRNA against Drosophila genes
Conditions: thapsigargin (2 µM) in calcium-free buffer to empty internal stores, then 2 mM calcium added back
Read-out: 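Stores emptied by 2 µM thapsigargin without calcium, then 2 mM calcium re-added; fluo-4 fluorescence followed by FLIPR in 384-well plates, per-well averaged endpoint, raw; two screen passes, some wells retested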
Direction: calcium signal: higher = more calcium entry after store depletion
Call rule: 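About 1500 genes called as lowering calcium entry, by varying amounts, judged against per-plate control wells with STIM1 as positive and Rho1 as negative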
Meaning of the calls: active = called as lowering calcium entry; inactive = not called
The deposit covers about 20,000 reagents; shown is an unselected part of those that have a named target and a result. In the full data, about 2,100 (10%) got an active call. 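Raw plate signals without normalisation; calls rest on control-based scores that were not deposited; replicate 2 separates called from uncalled poorly.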 A plus sign joins genes that one reagent is predicted to hit. Reagent sequences are not shown. Not given: the amount of reagent, the time to read-out.

CG31446 [DRSC13111]
- Call: active

CG8746 [DRSC07257]
- calcium signal, replicate 1: 125
- calcium signal, replicate 2: 184
- Call: inactive

Imp [DRSC20255]
- calcium signal, replicate 1: 205
- calcium signal, replicate 2: 145
- Call: inactive

Imp [DRSC21907]
- calcium signal, replicate 1: 103
- calcium signal, replicate 2: 192
- Call: inactive

CG12992 [DRSC19512]
- calcium signal, replicate 1: 90.5
- calcium signal, replicate 2: 122
- Call: inactive

hb [DRSC16963]
- calcium signal, replicate 1: 90.1
- calcium signal, replicate 2: 127
- Call: inactive

scat [DRSC02722]
- calcium signal, replicate 1: 75.6
- calcium signal, replicate 2: 98.2
- Call: inactive

CG2616 [DRSC15440]
- calcium signal, replicate 1: 123
- calcium signal, replicate 2: 144
- Call: inactive

Cpr76Bb [DRSC11061]
- calcium signal, replicate 1: 125
- calcium signal, replicate 2: 150
- Call: inactive

Cpr76Bb [DRSC22870]
- calcium signal, replicate 1: 83.5
- calcium signal, replicate 2: 71.4
- Call: inactive

ND-13A [DRSC03110]
- calcium signal, replicate 1: 123
- calcium signal, replicate 2: 81.4
- Call: inactive

Grasp65 [DRSC10917]
- calcium signal, replicate 1: 83.2
- calcium signal, replicate 2: 107
- Call: inactive

CG6324 [DRSC19985]
- calcium signal, replicate 1: 91.8
- calcium signal, replicate 2: 123
- Call: inactive

Mur2B [DRSC18545]
- calcium signal, replicate 1: 76
- calcium signal, replicate 2: 122
- Call: inactive

Mur2B [DRSC18546]
- calcium signal, replicate 1: 129
- calcium signal, replicate 2: 115
- Call: inactive

CG18635 [DRSC06780]
- calcium signal, replicate 1: 143
- calcium signal, replicate 2: 133
- Call: inactive

Lint-1 + rtv [DRSC19541]
- calcium signal, replicate 1: 135
- calcium signal, replicate 2: 73.2
- Call: inactive

QC [DRSC09736]
- calcium signal, replicate 1: 102
- calcium signal, replicate 2: 113
- Call: inactive

Prosbeta7 [DRSC12186]
- calcium signal, replicate 1: 63.4
- calcium signal, replicate 2: 70
- Call: active

CG4645 [DRSC19907]
- calcium signal, replicate 1: 136
- calcium signal, replicate 2: 113
- Call: inactive

CG13506 [DRSC04150]
- calcium signal, replicate 1: 104
- calcium signal, replicate 2: 127
- Call: inactive

Sox21a [DRSC10819]
- calcium signal, replicate 1: 94.6
- calcium signal, replicate 2: 121
- Call: inactive

spn-F [DRSC14475]
- calcium signal, replicate 1: 67.7
- calcium signal, replicate 2: 69.5
- Call: active

Pmm2 [DRSC09780]
- calcium signal, replicate 1: 84
- calcium signal, replicate 2: 118
- Call: inactive

Aatf [DRSC02131]
- calcium signal, replicate 1: 126
- calcium signal, replicate 2: 96.5
- Call: inactive

Fas1 [DRSC16669]
- calcium signal, replicate 1: 163
- calcium signal, replicate 2: 129
- Call: inactive

Reg-5 [DRSC04647]
- calcium signal, replicate 1: 171
- calcium signal, replicate 2: 85.7
- Call: inactive

Ir67a [DRSC09897]
- calcium signal, replicate 1: 71.9
- calcium signal, replicate 2: 117
- Call: inactive

Sorted by “calcium signal, replicate 1” (high to low): some entries from above
Sox21a [DRSC10819]
- calcium signal, replicate 1: 94.6
- calcium signal, replicate 2: 121
- Call: inactive

Pmm2 [DRSC09780]
- calcium signal, replicate 1: 84
- calcium signal, replicate 2: 118
- Call: inactive

spn-F [DRSC14475]
- calcium signal, replicate 1: 67.7
- calcium signal, replicate 2: 69.5
- Call: active
